Data: US20250154171A1, “RAS INHIBITORS” (Revolution Medicines, Inc., priority 2023, published 2025)
Some entries share one result that the patent states for a list of compounds.

Protein sequences, listed by entry. Tags and fused reporters are not part of them. Lines headed by an entry give the natural chain unless they say otherwise; changes in a name come on top. Residues count along the entry.
UniProt P01116, 1-188 isoform P01116-2 G12V: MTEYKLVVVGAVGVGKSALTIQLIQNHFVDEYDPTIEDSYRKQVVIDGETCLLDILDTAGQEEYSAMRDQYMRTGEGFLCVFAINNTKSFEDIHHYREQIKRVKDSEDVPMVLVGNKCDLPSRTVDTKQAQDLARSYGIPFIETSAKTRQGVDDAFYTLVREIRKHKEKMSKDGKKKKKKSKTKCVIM
UniProt P62937, whole entry: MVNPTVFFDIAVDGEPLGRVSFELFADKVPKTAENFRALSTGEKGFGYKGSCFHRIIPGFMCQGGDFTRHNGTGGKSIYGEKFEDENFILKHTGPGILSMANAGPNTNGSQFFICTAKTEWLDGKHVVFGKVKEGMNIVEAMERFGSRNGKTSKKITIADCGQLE

Tests used:
K-RasG12V = K-RasG12V (Homo sapiens, UniProt P01116+P62937, G12V); assay: Disruption of BRAF RBD interaction with K-Ras (TR-FRET / MOA assay), K-RasG12V; type: biochemical; conditions: TR-FRET with cyclophilin A and GST-BRAF RBD, read-out: IC50 with respect to K-RasG12V (disruption of BRAF RBD interaction)
Capan-1 (K-Ras G12V) = assay: CellTiter-Glo cell viability assay, Capan-1; type: cell-based, human; conditions: 5-day treatment, Capan-1 versus A375

Structure (SMILES) | IC50 (K-RasG12V) [nM] | decrease in cell viability with respect to KRAS G12V (Capan-1) versus wild-type KRAS (A375) (Capan-1 (K-Ras G12V))
CCO[C@@H]1c2nc(cs2)-c2ccc3c(c2)c(c(-c2cc(N4CCCN(C)CC4)cnc2[C@H](C)OC)n3CCOC2CCOCC2)CC(C)(C)COC(=O)[C@@H]2CCCN(N2)C(=O)[C@H]1NC(=O)[C@H]1[C@H](C)[C@@H]1C (racemic) [Example A812] | < 1000 | greater decrease in cell viability
CCO[C@@H]1c2nc(cs2)-c2ccc3c(c2)c(c(-c2cc(N4CCN(C5COC5)CC4)cnc2[C@H](C)OC)n3CCOC2CCOCC2)CC(C)(C)COC(=O)[C@@H]2CCCN(N2)C(=O)[C@H]1NC(=O)[C@H]1[C@H](C)[C@@H]1C (racemic) [Example A813] | < 1000 | greater decrease in cell viability
CO[C@@H](C)c1ncc(N2CCN(C3CC3)CC2)cc1-c1c2c3cc(ccc3n1CCOC1CCOCC1)-c1csc(n1)[C@@H](N1CCOCC1)[C@H](NC(=O)N1CC[C@H]1C)C(=O)N1CCC[C@H](N1)C(=O)OCC(C)(C)C2 (racemic) [Example A814] | < 1000 | greater decrease in cell viability
CO[C@@H](C)c1ncc(N2CCN(C3CC3)CC2)cc1-c1c2c3cc(ccc3n1CCOC1CCOCC1)-c1csc(n1)[C@@H](N1CCOCC1)[C@H](NC(=O)[C@@H]1[C@@H](C)[C@H]1c1ncccn1)C(=O)N1CCC[C@H](N1)C(=O)OCC(C)(C)C2 (racemic) [Example A815] | < 1000 | greater decrease in cell viability
CO[C@@H](C)c1ncc(N2CCN(C3CC3)CC2)cc1-c1c2c3cc(ccc3n1CCOC1CCOCC1)-c1csc(n1)[C@@H](N1CCOCC1)C(NC(=O)[C@H]1[C@H](C)[C@@H]1c1ncccn1)C(=O)N1CCC[C@H](N1)C(=O)OCC(C)(C)C2 (mixture of isomers) [Example A816] | < 1000 | greater decrease in cell viability
CCO[C@@H]1c2nc(cs2)-c2ccc3c(c2)c(c(-c2cc(N4CCN(C)CC4)cnc2[C@H](C)OC)n3CCOC2CCOCC2)CC(C)(C)COC(=O)[C@@H]2CCCN(N2)C(=O)[C@H]1NC(=O)N1C[C@@H]2COCC[C@@H]21 (racemic) [Example A817] | < 1000 | greater decrease in cell viability
CO[C@@H](C)c1ncc(N2CCN(C)CC2)cc1-c1c2c3cc(ccc3n1CCOC1CCOCC1)-c1csc(n1)[C@@H](OCC(F)F)[C@H](NC(=O)N1C[C@@H]3COCC[C@@H]31)C(=O)N1CCC[C@H](N1)C(=O)OCC(C)(C)C2 (racemic) [Example A818] | < 1000 | greater decrease in cell viability
CO[C@@H](C)c1ncc(N2CCN(C3COC3)CC2)cc1-c1c2c3cc(ccc3n1CCOC1CCOCC1)-c1csc(n1)[C@@H](OCC(F)F)[C@H](NC(=O)[C@H]1[C@H](C)[C@@H]1C)C(=O)N1CCC[C@H](N1)C(=O)OCC(C)(C)C2 (racemic) [Example A820] | < 1000 | greater decrease in cell viability
CCO[C@@H]1c2nc(cs2)-c2ccc3c(c2)c(c(-c2cc(N4CCN(C)CC4)cnc2[C@H](C)OC)n3CCOC(C)C)CC(C)(C)COC(=O)[C@@H]2CCCN(N2)C(=O)[C@H]1NC(=O)[C@H]1[C@H](C)[C@@H]1c1ncccn1 (racemic) [Example A821] | < 1000 | greater decrease in cell viability
CO[C@@H](C)c1ncc(N2CCN(C3CC3)CC2)cc1-c1c2c3cc(ccc3n1CCOC1CCOCC1)-c1csc(n1)[C@@H](N1CCOCC1)[C@H](NC(=O)[C@@H]1[C@@H](C)[C@H]1C(=O)N1CCN(C)CC1)C(=O)N1CCC[C@H](N1)C(=O)OCC(C)(C)C2 (racemic) [Example A822] | < 1000 | greater decrease in cell viability
CO[C@@H](C)c1ncc(N2CCN(C3CC3)CC2)cc1-c1c2c3cc(ccc3n1CCOC1CCOCC1)-c1csc(n1)[C@@H](OCC(F)F)[C@H](NC(=O)N1CC[C@H]1[C@@H](C)O)C(=O)N1CCC[C@H](N1)C(=O)OCC(C)(C)C2 (racemic) [Example A823] | < 1000 | greater decrease in cell viability
CO[C@@H](C)c1ncc(N2CCN(C3CC3)CC2)cc1-c1c2c3cc(ccc3n1CCOC1CCOCC1)-c1csc(n1)[C@@H](OCC(F)F)[C@H](NC(=O)N1CC[C@H]1C)C(=O)N1CCC[C@H](N1)C(=O)OCC(C)(C)C2 (racemic) [Example A824] | < 1000 | greater decrease in cell viability
CCO[C@@H]1c2nc(cs2)-c2ccc3c(c2)c(c(-c2cc([C@@H]4CCCN(C)CC4)cnc2[C@H](C)OC)n3CCOC2CCOCC2)CC(C)(C)COC(=O)[C@@H]2CCCN(N2)C(=O)[C@H]1NC(=O)N1CC[C@H]1C (racemic) [Example A826] | < 1000 | greater decrease in cell viability
CCO[C@@H]1c2nc(cs2)-c2ccc3c(c2)c(c(-c2cc(N4CCN(C5CC5)CC4)cnc2[C@H](C)OC)n3CCOC(C)C)CC(C)(C)COC(=O)[C@@H]2CCCN(N2)C(=O)[C@H]1NC(=O)[C@@H]1[C@@H](C)[C@H]1C(=O)N1CCN(C(C)C)CC1 (racemic) [Example A827] | < 1000 | greater decrease in cell viability
CCO[C@@H]1c2nc(cs2)-c2ccc3c(c2)c(c(-c2cc(N4CCN(C5CC5)CC4)cnc2[C@H](C)OC)n3CCOC(C)C)CC(C)(C)COC(=O)[C@@H]2CCCN(N2)C(=O)[C@H]1NC(=O)[C@@H]1[C@@H](C)[C@H]1C(=O)N1CCN(C)[C@@H](C)C1 (racemic) [Example A829] | < 1000 | greater decrease in cell viability
CO[C@@H](C)c1ncc(N2CCN(C3CC3)CC2)cc1-c1c2c3cc(ccc3n1CCOC(C)C)-c1csc(n1)[C@@H](OCC(F)F)[C@H](NC(=O)[C@@H]1[C@@H](C)[C@H]1C(=O)N1CCN(C)CC1)C(=O)N1CCC[C@H](N1)C(=O)OCC(C)(C)C2 (racemic) [Example A830] | < 1000 | greater decrease in cell viability
CO[C@@H](C)c1ncc(N2CCN(C)CC2)cc1-c1c2c3cc(ccc3n1CCOC(C)C)-c1csc(n1)[C@@H](N1CCOCC1)[C@H](NC(=O)[C@H]1[C@H](C)[C@@H]1C)C(=O)N1CCC[C@H](N1)C(=O)OCC(C)(C)C2 (racemic) [Example A831] | < 1000 | greater decrease in cell viability
CCO[C@@H]1c2nc(cs2)-c2ccc3c(c2)c(c(-c2cc([C@@H]4CCN5CCOC[C@H]5C4)cnc2[C@H](C)OC)n3CCOC2CCOCC2)CC(C)(C)COC(=O)[C@@H]2CCCN(N2)C(=O)[C@H]1NC(=O)[C@@H]1[C@@H](C)[C@H]1c1ccccn1 (racemic) [Example A832] | < 1000 | greater decrease in cell viability
CCO[C@@H]1c2nc(cs2)-c2ccc3c(c2)c(c(-c2cc([C@@H]4CCN5CCOC[C@@H]5C4)cnc2[C@H](C)OC)n3CCOC2CCOCC2)CC(C)(C)COC(=O)[C@@H]2CCCN(N2)C(=O)[C@H]1NC(=O)[C@@H]1[C@@H](C)[C@H]1c1ccccn1 (racemic) [Example A833] | < 1000 | greater decrease in cell viability
CO[C@@H](C)c1ncc(N2CCN(C)CC2)cc1-c1c2c3cc(ccc3n1CCOC1CCOCC1)-c1csc(n1)[C@@H](OCC(F)F)[C@H](NC(=O)[C@@H]1[C@@H](C)[C@H]1C(C)C)C(=O)N1CCC[C@H](N1)C(=O)OCC(C)(C)C2 (racemic) [Example A834] | < 1000 | greater decrease in cell viability
CO[C@@H](C)c1ncc(N2CCN(C)CC2)cc1-c1c2c3cc(ccc3n1CCOC1CCOCC1)-c1csc(n1)[C@@H](OCC(F)F)[C@H](NC(=O)[C@H]1[C@H](C)[C@@H]1C(C)C)C(=O)N1CCC[C@H](N1)C(=O)OCC(C)(C)C2 (racemic) [Example A835] | < 1000 | greater decrease in cell viability
CCO[C@@H]1c2nc(cs2)-c2ccc3c(c2)c(c(-c2cc([C@@H]4CCCN(C)CC4)cnc2[C@H](C)OC)n3CCOC2CCOCC2)CC(C)(C)COC(=O)[C@@H]2CCCN(N2)C(=O)[C@H]1NC(=O)[C@H]1[C@H](C)[C@@H]1C (racemic) [Example A837] | < 1000 | greater decrease in cell viability
CCO[C@@H]1c2nc(cs2)-c2ccc3c(c2)c(c(-c2cc(N4CCN(C)CC4)cnc2[C@H](C)OC)n3CCOC(C)C)CC(C)(C)COC(=O)[C@@H]2CCCN(N2)C(=O)[C@H]1NC(=O)[C@@H]1[C@@H](C)[C@H]1c1cscn1 (racemic) [Example A838] | < 1000 | greater decrease in cell viability
CCO[C@H](c1nc(-c2ccc3c(c2)cc(-c2cc([C@H]4CCCN(C)CC4)cnc2[C@H](C)OC)n3CCOC2CCOCC2)cs1)[C@H](NC(=O)[C@H]1[C@H](C)[C@@H]1C)C(=O)N1CCC[C@@H](C(=O)OCC(C)(C)C)N1 (racemic) [Example A839] | < 1000 | greater decrease in cell viability
CCO[C@@H]1c2nc(cs2)-c2ccc3c(c2)c(c(-c2cc(N4CCN(C)CC4)cnc2[C@H](C)OC)n3CCOC2CCOCC2)CC(C)(C)COC(=O)[C@@H]2CCCN(N2)C(=O)[C@H]1NC(=O)[C@@H]1[C@@H](C)[C@H]1c1ccccn1 (racemic) [Example A840] | < 1000 | greater decrease in cell viability
